# Experimental data taken from the supplement of paper PMC5355238.
# Where a name gives a salt, the structure may show the parent alone. ± gives the standard deviation of the averaged measurements. The list shows a part of the results. Repeats are few or missing, and single values can be far off.
# Test system: Reh
# Assay: S-phase gammaH2AX median, Z-score vs plate median (drug alone); higher = more S-phase DNA damage
# Conditions: MK1775 concentration 0 nM; 10 µM; 4 h
row,SMILES,S-phase gammaH2AX median (Z-score)
1,C=C1/C(=C\C=C2/CCC[C@]3(C)[C@@H]([C@H](C)/C=C/[C@H](C)C(C)C)CC[C@@H]23)C[C@@H](O)C[C@@H]1O [Doxercalciferol (Hectorol)],0.116
2,CC(C)(C)NCC(O)c1cc(O)cc(O)c1 (stereo not given) [Terbutaline hemisulfate],0.487
3,CC[N+](CC)(CC)CCOc1cccc(OCC[N+](CC)(CC)CC)c1OCC[N+](CC)(CC)CC [Gallamine triethiodide],0.0189
4,CCOC(=O)[N-]c1c[n+](N2CCOCC2)no1 [Molsidomine],-0.281
5,CC/C(=C(\c1ccccc1)c1ccc(OCCN(C)C)cc1)c1ccccc1 [Tamoxifen Citrate (Nolvadex)],-0.0437
6,CC/C(=C(\c1ccccc1)c1ccc(OCCN(C)C)cc1)c1ccccc1 [Tamoxifen citrate],-0.1
7,CCN(CCCOc1ccc2c(Nc3cc(CC(=O)Nc4cccc(F)c4)[nH]n3)ncnc2c1)CCOP(=O)(O)O [Barasertib (AZD1152-HQPA)],0.0545
8,O=c1[nH]nc(Sc2ncc([N+](=O)[O-])s2)n1-c1ccc2c(c1)OCCO2,0.498
9,CCN1CCC[C@H]1CNC(=O)c1c(O)c(Cl)cc(Cl)c1OC [S(+)-Raclopride L-tartrate],-0.314
10,O=C(O)c1cccnc1C(=O)O [Quinolinic acid],-0.0993
11,CN1CCN(c2nc(C3=C(c4c[nH]c5ccccc45)C(=O)NC3=O)c3ccccc3n2)CC1 [Sotrastaurin (AEB071)],-0.113
12,COc1cc2ncnc(Nc3ccc(F)c(Cl)c3)c2cc1OCCCN1CCOCC1 [Gefitinib (Iressa)],-0.0476
13,CN1CCC[C@@H]1CCO[C@](C)(c1ccccc1)c1ccc(Cl)cc1 [Clemastine fumarate],0.0563
14,Nc1nc2[nH]cc(CCc3ccc(C(=O)N[C@@H](CCC(=O)O)C(=O)O)cc3)c2c(=O)[nH]1 [Pemetrexed],-0.0205
15,COCCc1ccc(OCC(O)CNC(C)C)cc1 (stereo not drawn) [(?)-Metoprolol (+)-tartrate],-0.118
16,CC(C)Cc1ccc(C(C)C(=O)O)cc1 (stereo not given) [(?)-Ibuprofen],0.0472
17,O=C(O)C1(C(=O)O)CCC1.[NH2-].[NH2-].[Pt+2] [Carboplatin],0.0821 ± 0.14
18,COC(=O)C(N)Cc1ccc(Cl)cc1 (racemic) [DL-p-Chlorophenylalanine methyl ester hydrochloride],-0.0233
19,O=c1c(O)c(-c2ccc(O)c(O)c2)oc2cc(O)cc(O)c12 [Quercetin (Sophoretin)],0.116
20,O=c1c(O)c(-c2ccc(O)c(O)c2)oc2cc(O)cc(O)c12 [Quercetin dihydrate],0.18

# Records 13 to 14, quoted:
row,SMILES,S-phase gammaH2AX median (Z-score)
13,CN1CCC[C@@H]1CCO[C@](C)(c1ccccc1)c1ccc(Cl)cc1 [Clemastine fumarate],0.0563
14,Nc1nc2[nH]cc(CCc3ccc(C(=O)N[C@@H](CCC(=O)O)C(=O)O)cc3)c2c(=O)[nH]1 [Pemetrexed],-0.0205
